The campaign covered roughly 320,000 compounds. About 22,000 (6.9%) were called active. Inconclusive results, whose numbers are uncertain, are shown with a selection of clear calls. Calls come from the whole dose curve; as a rule, active = well fitted inhibition curve with a large enough effect; inconclusive = small, poorly fitted or top-dose-only effect, or another doubt; inactive = no such curve, though single readings can be large or run the other way. Potencies beside an inconclusive call are fits to weak or partial responses and may not hold up.
test: Primary qHTS for delayed death inhibitors of the malarial parasite plastid, 96 hour incubation; details: P. falciparum luciferase reporter growth; series mostly up to 28.7 µM
Procedure, shortened: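 P. falciparum expressing integrated firefly luciferase grown in erythrocytes (2% hematocrit, 0.05% parasitemia final) with compounds for 96 hours at 37 C, 5% CO2. Growth inhibition read as loss of luminescence after adding luciferase detection reagent.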
Potency is the fitted concentration of half-maximal effect.

Row | SMILES | Potency
1 | CCOC(=O)N1CCN(Cc2nc3cc(NC(=O)c4cccs4)ccc3n2CC)CC1 | inactive
2 | Cc1ccc(S(=O)(=O)N(C)C)cc1NS(=O)(=O)c1ccc(Cl)s1 | inactive
3 | Cc1cccc(OCc2nnc(N)s2)c1C | inconclusive: 10.4 µM [inhibitor, partial curve, poor fit]
4 | COc1cc(-c2csc(CCn3nc(C)cc3C)n2)cc(OC)c1OC | inactive
5 | CNc1nc(OC)nc(N(C#N)CN2C(=O)c3ccccc3S2(=O)=O)n1 | inconclusive: 20.8 µM [inhibitor, single point]
6 | CC(=O)c1ccc(S(=O)(=O)N2CCN(C(=O)c3ccc(-n4nc(C)c(Cl)c4C)cc3)CC2)cc1 | active: 13.1 µM
7 | Cc1cccc(OCC(O)Cn2c(=N)n(Cc3ccccc3)c3ccccc32)c1 (stereo not given) | active: 5.22 µM
8 | CC(NC(=O)c1cccc(S(=O)(=O)N2CCN(Cc3ccccc3)CC2)c1)c1ccc(Br)cc1 (stereo not given) | inconclusive: 14.7 µM [inhibitor, single point]
9 | Cn1c(NC(=O)/C=C/c2c(F)cccc2Cl)cc(=O)n(C)c1=O | inconclusive: 18.5 µM [inhibitor, single point]
10 | COC(=O)C1=C(C)NC(=O)/C1=C\c1cc(C)n(-c2ccccc2C)c1C | active: 9.28 µM
11 | CCN(Cc1ccccc1)C(=O)c1ccc(Cl)cc1[N+](=O)[O-] | inconclusive: 18.5 µM [inhibitor, single point]
12 | O=C(Cn1cc(C(=O)C2CC2)c2ccccc21)NCC1CCCO1 (stereo not given) | inconclusive: 11.7 µM [inhibitor, partial curve, poor fit]
13 | Cc1ccc(Nc2cc(C)c(O)c(C)c2)cc1 | inconclusive: 18.5 µM [inhibitor, single point]
14 | O=C1CCC(=O)N1CO | inactive
15 | Cn1c(=O)c2c(nc(NCc3ccco3)n2C/C=C/c2ccccc2)n(C)c1=O | active: 9.28 µM
16 | COC(=O)c1sccc1NC(=O)/C=C/c1ccc(Cl)cc1Cl | inconclusive: 13.1 µM [inhibitor, partial curve, poor fit]
17 | CCCC[C@H](CN[C@@H](CNC)[C@H](C)CC)NCCC12CCC(CC1)C2 | active: 2.62 µM
18 | COc1ccc(CCNc2nc(-c3ccncc3)cs2)cc1OC | inconclusive: 18.5 µM [inhibitor, partial curve, poor fit]
19 | CCOC(=O)c1nnn(-c2nonc2N)c1COc1c(C=O)cccc1OC | inconclusive: 1.31 µM [inhibitor, single point]
20 | CCC(O)CNc1nc(-n2nc(C)cc2C)nc2sc3c(c12)CC(C)(C)OC3 (stereo not given) | inconclusive: 0.0586 µM [inhibitor, partial curve, poor fit]

Two records picked at random from those above:
Row | SMILES | Potency
7 | Cc1cccc(OCC(O)Cn2c(=N)n(Cc3ccccc3)c3ccccc32)c1 (stereo not given) | active: 5.22 µM
15 | Cn1c(=O)c2c(nc(NCc3ccco3)n2C/C=C/c2ccccc2)n(C)c1=O | active: 9.28 µM

— PubChem BioAssay AID504834 (National Center for Advancing Translational Sciences (NCATS), 2011)
